Assay results as given in PMC6032326, “Connexin43 Carboxyl-Terminal Domain Directly Interacts with β-Catenin” (International Journal of Molecular Sciences, 2018).
Results are given in words; binding and its absence hold for the method and conditions named.

Chains of the proteins cited; added tags and fusions are not shown. Lines headed by an entry give the natural chain unless they say otherwise; changes in a name come on top. A line that says so, or that is headed by a name, gives the form on record, which may keep a tag or linker.
UniProt P08050: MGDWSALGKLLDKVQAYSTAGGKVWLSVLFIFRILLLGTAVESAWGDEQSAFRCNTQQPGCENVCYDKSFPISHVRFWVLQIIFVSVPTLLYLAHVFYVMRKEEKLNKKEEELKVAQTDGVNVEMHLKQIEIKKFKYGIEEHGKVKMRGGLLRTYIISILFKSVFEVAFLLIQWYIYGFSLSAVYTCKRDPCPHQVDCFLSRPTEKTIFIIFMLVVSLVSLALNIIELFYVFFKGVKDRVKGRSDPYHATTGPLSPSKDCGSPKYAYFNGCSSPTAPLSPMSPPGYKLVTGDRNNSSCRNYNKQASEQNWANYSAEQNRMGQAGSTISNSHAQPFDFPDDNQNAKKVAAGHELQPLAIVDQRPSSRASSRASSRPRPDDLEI
Cx43CT Y265,313D (P08050, form named): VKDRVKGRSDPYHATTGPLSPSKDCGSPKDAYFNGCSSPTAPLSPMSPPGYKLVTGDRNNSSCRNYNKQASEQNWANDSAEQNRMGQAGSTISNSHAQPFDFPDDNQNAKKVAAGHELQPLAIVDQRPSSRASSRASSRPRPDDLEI
UniProt P35222: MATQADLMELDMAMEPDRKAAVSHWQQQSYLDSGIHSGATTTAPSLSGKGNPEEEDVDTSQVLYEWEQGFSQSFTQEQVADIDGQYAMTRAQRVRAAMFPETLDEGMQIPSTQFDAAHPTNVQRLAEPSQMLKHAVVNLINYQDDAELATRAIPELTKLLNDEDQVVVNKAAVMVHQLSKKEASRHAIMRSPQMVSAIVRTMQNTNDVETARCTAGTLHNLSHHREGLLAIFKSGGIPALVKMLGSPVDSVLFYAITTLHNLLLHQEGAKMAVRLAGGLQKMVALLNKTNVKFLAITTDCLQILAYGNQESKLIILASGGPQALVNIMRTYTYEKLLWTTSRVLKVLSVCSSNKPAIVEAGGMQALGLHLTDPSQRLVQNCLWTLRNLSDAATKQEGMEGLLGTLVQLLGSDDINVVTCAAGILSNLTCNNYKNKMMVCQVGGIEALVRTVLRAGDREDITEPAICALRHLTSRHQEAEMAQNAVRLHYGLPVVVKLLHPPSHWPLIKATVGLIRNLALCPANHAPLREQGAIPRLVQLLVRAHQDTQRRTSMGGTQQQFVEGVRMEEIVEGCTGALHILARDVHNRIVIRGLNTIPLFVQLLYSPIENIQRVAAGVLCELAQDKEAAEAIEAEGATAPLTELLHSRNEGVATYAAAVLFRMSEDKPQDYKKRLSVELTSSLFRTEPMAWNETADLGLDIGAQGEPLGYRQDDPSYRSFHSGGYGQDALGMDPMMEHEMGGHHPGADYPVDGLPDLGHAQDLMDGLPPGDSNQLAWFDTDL

Experiments:
Cx43CT Y265,313D (rat) = Cx43CT Y265,313D (rat) (UniProt P08050); test: NMR titration; 15N-HSQC at 7 °C; 15N-labelled Cx43CT (WT, Y313D or Y265,313D) at constant 35 μM, unlabelled β-catenin, β-catenin CT or β-catenin ΔCT added up to 285 μM; 1x PBS pH 7.8, 2 mM dithiothreitol; KD from the fit of the decrease in signal intensity; both purified
[1] = target: Connexin43 carboxyl-terminal domain (V236–I382) (rat) (UniProt P08050); test: as above

Substance	binding (Cx43CT Y265,313D (rat))	binding [1]
full-length β-catenin (from UniProt P35222 1-781)	no binding (tested: up to 285 μM)	
β-catenin carboxyl-terminal (CT) domain (S681–L781) (from UniProt P35222 681-781) (domain or fragment)	no binding (tested: up to 285 μM)	
β-catenin ΔCT (M1-S680) (from UniProt P35222 1-680) (domain or fragment)		no binding (tested: up to 285 μM)
